Experimental data from article doi:10.1101/2022.05.11.491457.
Results are given in words; binding and its absence hold for the method and conditions named. Binding seen in cells or lysates may run through a third protein. Some entries that bind do so weakly or less than the wild type. Tags and fused reporters may be left off the sequences shown.

Legend:
[1] = target: T1, ABCG36-GFP (PEN3:PEN3-GFP), N. benthamiana (Arabidopsis thaliana) (UniProt Q9XIE2); assay: co-IP
T1 sequence: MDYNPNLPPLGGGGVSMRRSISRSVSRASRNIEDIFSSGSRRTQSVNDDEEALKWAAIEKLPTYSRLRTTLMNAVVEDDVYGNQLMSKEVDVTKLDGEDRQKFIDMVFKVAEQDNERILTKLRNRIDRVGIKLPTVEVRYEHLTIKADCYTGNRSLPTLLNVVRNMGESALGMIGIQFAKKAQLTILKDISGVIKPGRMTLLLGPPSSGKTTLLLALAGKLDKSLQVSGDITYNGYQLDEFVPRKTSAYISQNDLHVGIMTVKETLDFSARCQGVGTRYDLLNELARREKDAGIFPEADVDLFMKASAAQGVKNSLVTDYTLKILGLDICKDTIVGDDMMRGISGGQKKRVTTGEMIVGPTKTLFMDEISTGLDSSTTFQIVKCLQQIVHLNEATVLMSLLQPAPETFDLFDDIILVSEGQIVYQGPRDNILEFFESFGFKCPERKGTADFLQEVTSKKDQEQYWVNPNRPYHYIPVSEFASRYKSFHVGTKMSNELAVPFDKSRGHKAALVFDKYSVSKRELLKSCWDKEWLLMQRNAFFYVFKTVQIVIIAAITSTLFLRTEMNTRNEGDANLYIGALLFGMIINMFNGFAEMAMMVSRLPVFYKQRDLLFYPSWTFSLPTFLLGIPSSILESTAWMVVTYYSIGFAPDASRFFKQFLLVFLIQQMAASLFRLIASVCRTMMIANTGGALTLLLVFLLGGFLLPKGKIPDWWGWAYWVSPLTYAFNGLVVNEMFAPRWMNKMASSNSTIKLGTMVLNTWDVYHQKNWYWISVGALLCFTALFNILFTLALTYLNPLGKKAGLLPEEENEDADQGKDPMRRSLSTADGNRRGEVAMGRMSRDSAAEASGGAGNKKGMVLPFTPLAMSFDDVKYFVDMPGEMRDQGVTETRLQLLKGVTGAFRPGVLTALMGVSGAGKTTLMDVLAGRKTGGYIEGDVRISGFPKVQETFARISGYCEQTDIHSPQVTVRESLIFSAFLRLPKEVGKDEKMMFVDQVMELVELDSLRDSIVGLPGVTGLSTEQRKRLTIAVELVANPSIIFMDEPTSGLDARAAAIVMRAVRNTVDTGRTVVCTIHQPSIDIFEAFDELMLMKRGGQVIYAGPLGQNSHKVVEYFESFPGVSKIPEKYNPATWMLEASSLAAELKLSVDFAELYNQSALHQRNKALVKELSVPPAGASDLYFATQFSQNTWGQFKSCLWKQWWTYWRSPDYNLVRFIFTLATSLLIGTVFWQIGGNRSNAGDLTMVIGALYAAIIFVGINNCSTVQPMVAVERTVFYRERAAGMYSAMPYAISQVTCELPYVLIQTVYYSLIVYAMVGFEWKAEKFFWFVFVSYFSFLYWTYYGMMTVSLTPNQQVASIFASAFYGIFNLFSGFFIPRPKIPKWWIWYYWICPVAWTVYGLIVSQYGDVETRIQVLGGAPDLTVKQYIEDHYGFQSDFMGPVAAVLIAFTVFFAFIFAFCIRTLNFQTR

[2] = target: T1, ABCG36-GFP (PEN3:PEN3-GFP), N. benthamiana (Arabidopsis thaliana); assay: FRET or BRET

binding [1]: binds
binding [2]: binds
B1: ALK1-mCherry (35S:ALK1-mCherry) (receptor, UniProt Q9M8T0 24-627)
chain: SDLESDRRALLAVRNSVRGRPLLWNMSASSPCNWHGVHCDAGRVTALRLPGSGLFGSLPIGGIGNLTQLKTLSLRFNSLSGPIPSDFSNLVLLRYLYLQGNAFSGEIPSLLFTLPSIIRINLGENKFSGRIPDNVNSATRLVTLYLERNQLSGPIPEITLPLQQFNVSSNQLNGSIPSSLSSWPRTAFEGNTLCGKPLDTCEAESPNGGDAGGPNTPPEKKDSDKLSAGAIVGIVIGCVVGLLLLLLILFCLCRKRKKEENVPSRNVEAPVAAATSSAAIPKETVVVVPPAKATGSESGAVNKDLTFFVKSFGEFDLDGLLKASAEVLGKGTVGSSYKASFEHGLVVAVKRLRDVVVPEKEFRERLHVLGSMSHANLVTLIAYYFSRDEKLLVFEYMSKGSLSAILHGNKGNGRTPLNWETRAGIALGAARAISYLHSRDGTTSHGNIKSSNILLSDSYEAKVSDYGLAPIISSTSAPNRIDGYRAPEITDARKISQKADVYSFGVLILELLTGKSPTHQQLNEEGVDLPRWVQSVTEQQTPSDVLDPELTRYQPEGNENIIRLLKIGMSCTAQFPDSRPSMAEVTRLIEEVSHSSGSPNPVSD
